Results deposited as PubChem BioAssay AID720505 (Drosophila RNAi Screening Center, 2013)

Test: 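Fly regulators or components of the CRAC channel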 (primary screen)
System: Drosophila S2R+ cells
Reagents: long dsRNA against Drosophila genes
Challenge: thapsigargin (2 µM) in calcium-free buffer to empty internal stores, then 2 mM calcium added back
Detection: 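Fluo-4 signal in 384-well plates read on a FLIPR after thapsigargin (2 µM, calcium-free) store depletion and 2 mM calcium add-back; unnormalised mean endpoint per well; screen run twice, selected wells retested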
Direction: calcium signal and retest calcium signal: higher = more calcium entry after store depletion
Rule for the call: 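About 1500 genes called as lowering calcium entry, by varying amounts, judged against per-plate control wells with STIM1 as positive and Rho1 as negative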
Meaning of the calls: active = called as lowering calcium entry; inactive = not called
In all, the deposit lists about 20,000 reagents; below is a random part of those with a known target gene and a result. In the full data, about 2,100 (10%) are marked active. 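Raw plate signals without normalisation; calls rest on control-based scores that were not deposited; replicate 2 separates called from uncalled poorly.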 The numbers tell different reagents against one gene apart. Names joined by + are all predicted targets of the reagent. The record does not give: the amount of reagent, the time to read-out.

Which result is listed for CG9316?
calcium signal, replicate 1: 167; calcium signal, replicate 2: 78.7; Outcome: inactive

With CG10694, what was measured?
calcium signal, replicate 1: 223; calcium signal, replicate 2: 185; Outcome: inactive

For SLIRP1 + anox, what does the deposit list?
calcium signal, replicate 1: 160; calcium signal, replicate 2: 127; Outcome: inactive

For CG2962, how do the results read?
calcium signal, replicate 1: 172; calcium signal, replicate 2: 132; Outcome: inactive

For CG5793 + Obp93a, how do the results read?
calcium signal, replicate 1: 130; calcium signal, replicate 2: 149; Outcome: inactive

For CG3638, what does the deposit list?
calcium signal, replicate 1: 123; calcium signal, replicate 2: 128; Outcome: inactive

How did the screen score Crag?
calcium signal, replicate 1: 88.6; calcium signal, replicate 2: 56.5; Outcome: active

Which result is listed for Brd8 (Bromodomain containing 8)?
calcium signal, replicate 1: 107; calcium signal, replicate 2: 104; Outcome: inactive

With AdoR (Adenosine receptor), what was measured?
calcium signal, replicate 1: 181; calcium signal, replicate 2: 138; Outcome: inactive

For CG13679 #1, what does the deposit list?
calcium signal, replicate 1: 110; calcium signal, replicate 2: 92.4; retest calcium signal, replicate 1: 6777; retest calcium signal, replicate 2: 79.6; Outcome: inactive

With CG13679 #2, how do the results read?
calcium signal, replicate 1: 146; calcium signal, replicate 2: 203; Outcome: inactive

Which result is listed for CG14631 #1?
calcium signal, replicate 1: 115; calcium signal, replicate 2: 133; Outcome: inactive

How did the screen score CG14631 #2?
calcium signal, replicate 1: 116; calcium signal, replicate 2: 183; Outcome: inactive

With Pstk + Tim9b #1, what does the deposit list?
calcium signal, replicate 1: 95.4; calcium signal, replicate 2: 109; Outcome: inactive

For Pstk + Tim9b #2, what was measured?
calcium signal, replicate 1: 77.3; calcium signal, replicate 2: 215; Outcome: active

For tun (tungus) #1, how do the results read?
calcium signal, replicate 1: 103; calcium signal, replicate 2: 97.1; Outcome: inactive

Which result is listed for tun (tungus) #2?
calcium signal, replicate 1: 116; calcium signal, replicate 2: 93.9; Outcome: inactive

How did the screen score Pldn (Pallidin)?
calcium signal, replicate 1: 89.5; calcium signal, replicate 2: 101; Outcome: inactive

With Cpr12A (Cuticular protein 12A), what was measured?
calcium signal, replicate 1: 102; calcium signal, replicate 2: 85.6; Outcome: inactive

With CG15036, what does the deposit list?
calcium signal, replicate 1: 287; calcium signal, replicate 2: 74; Outcome: inactive

With Rpp14b (Ribonuclease P/MRP subunit p14 b), what was measured?
calcium signal, replicate 1: 172; calcium signal, replicate 2: 112; Outcome: inactive

Which result is listed for mat (materazzi) #1?
calcium signal, replicate 1: 98.9; calcium signal, replicate 2: 111; Outcome: inactive

What did the screen give for mat (materazzi) #2?
calcium signal, replicate 1: 98; calcium signal, replicate 2: 107; Outcome: inactive

With CG46491 #1, what was measured?
calcium signal, replicate 1: 105; calcium signal, replicate 2: 95.3; Outcome: inactive

For CG46491 #2, what was measured?
calcium signal, replicate 1: 163; calcium signal, replicate 2: 146; Outcome: inactive

What did the screen give for CG5412?
calcium signal, replicate 1: 183; calcium signal, replicate 2: 294; Outcome: inactive

For Targ1 (Terminal ADP-ribose protein glycohydrolase 1), how do the results read?
calcium signal, replicate 1: 111; calcium signal, replicate 2: 112; Outcome: inactive

For CG5854, what does the deposit list?
calcium signal, replicate 1: 79.3; calcium signal, replicate 2: 123; Outcome: inactive

What did the screen give for RabGGTa (Rab geranylgeranyltransferase subunit alpha)?
calcium signal, replicate 1: 106; calcium signal, replicate 2: 109; Outcome: inactive

How did the screen score Tmem214 (Transmembrane protein 214) #1?
calcium signal, replicate 1: 178; calcium signal, replicate 2: 178; Outcome: inactive

For Tmem214 (Transmembrane protein 214) #2, what was measured?
calcium signal, replicate 1: 158; calcium signal, replicate 2: 141; Outcome: inactive

Which result is listed for CG15336?
calcium signal, replicate 1: 206; calcium signal, replicate 2: 112; Outcome: inactive

How did the screen score gkt + CR31953?
calcium signal, replicate 1: 122; calcium signal, replicate 2: 177; Outcome: inactive

With Nup358 (Nucleoporin 358kD), what was measured?
calcium signal, replicate 1: 259; calcium signal, replicate 2: 163; Outcome: inactive

For CG11052, what does the deposit list?
calcium signal, replicate 1: 116; calcium signal, replicate 2: 165; Outcome: inactive
